PubChem BioAssay AID1053208, Peter MacCallum Cancer Centre, 2014

- Screen: 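Genes whose silencing cuts survival of bone tumour cells only with doxorubicin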 (primary screen)
- Cells: mouse osteosarcoma cells, early-passage culture from an engineered mouse model of fibroblastic bone tumour
- Reagent: siRNA pool against mouse genes, 40 nM
- Duration: about 120 h (48 h before drug, then 72 h with drug)
- Treatment: doxorubicin 100 nM for 72 h, roughly 30-40% inhibitory dose
- Detection: 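Luminescent ATP signal taken as viability with or without 100 nM doxorubicin for 72 h; mean of two wells set against non-targeting siRNA and turned into robust z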
- Reading the numbers: viability z-score with doxorubicin: higher = more viable cells under doxorubicin; viability z-score without drug: higher = more viable cells with knock-down alone
- Rule for the call: 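a pool counts as active when its viability z-score with doxorubicin is -2 or below and its z-score without drug lies between -2 and 2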
In all, the deposit lists about 17,000 reagents; this is a random part of them. 788 of them (4.7%) were called active. 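Calls rest on z-score classes alone; an extra cut-off of viability at most 70% of control was not applied to them.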 Unmarked entries are inactive. A reagent listed more than once was tested more than once; the source does not tell the runs apart. Not all columns of the deposit are shown.

combined z-score class	viability z-score with doxorubicin	viability z-score without drug	Target gene
no change with or without drug	-1.57	0.17	Ftdc2 (GeneID 224247)
no change with or without drug	-0.9	1.18	Kctd3 (GeneID 226823)
no change with or without drug	-1.57	-1.18	Necab2 (GeneID 117148)
no change with or without drug	0.34	-1.52	Ly75 (GeneID 17076)
no change with or without drug	0.22	0.51	A830031A19Rik (GeneID 268391)
no change with or without drug	-0.67	-0.51	St18 (GeneID 240690)
no change with or without drug	0.67	0.51	Psmg1 (GeneID 56088)
no change with or without drug	-0.22	1.35	Vwc2l (GeneID 320460)
no change with or without drug	0.34	0.51	Vmn1r180 (GeneID 232962)
no change with or without drug	-1.35	-0.67	Peli2 (GeneID 93834)
no change with or without drug	-0.45	-0.51	Ntrk1 (GeneID 18211)
high cell count with and without drug	2.81	3.2	Taf8 (GeneID 63856)
no change with or without drug	-1.12	0.17	Ptprv (GeneID 13924)
high cell count with doxorubicin only	2.25	1.69	Ucp1 (GeneID 22227)
no change with or without drug	0.34	1.18	Klf13 (GeneID 50794)
no change with or without drug	-0.45	0.84	Rps6ka3 (GeneID 110651)
no change with or without drug	-1.57	-1.01	Rdh13 (GeneID 108841)
no change with or without drug	1.8	0.17	Cd200r3 (GeneID 74603)
no change with or without drug	-1.12	-0.67	Fcf1 (GeneID 73736)
no change with or without drug	-0.22	0.34	Rbm47 (GeneID 245945)
no change with or without drug	0	-1.35	Mapk11 (GeneID 19094)

Laid out differently: 5 of the entries above
{"Target gene":"Taf8 (GeneID 63856)","combined z-score class":"high cell count with and without drug","viability z-score with doxorubicin":2.81,"viability z-score without drug":3.2}
{"Target gene":"Ptprv (GeneID 13924)","combined z-score class":"no change with or without drug","viability z-score with doxorubicin":-1.12,"viability z-score without drug":0.17}
{"Target gene":"Ucp1 (GeneID 22227)","combined z-score class":"high cell count with doxorubicin only","viability z-score with doxorubicin":2.25,"viability z-score without drug":1.69}
{"Target gene":"Klf13 (GeneID 50794)","combined z-score class":"no change with or without drug","viability z-score with doxorubicin":0.34,"viability z-score without drug":1.18}
{"Target gene":"Rps6ka3 (GeneID 110651)","combined z-score class":"no change with or without drug","viability z-score with doxorubicin":-0.45,"viability z-score without drug":0.84}

Continued:
combined z-score class	viability z-score with doxorubicin	viability z-score without drug	Target gene
no change with or without drug	-0.45	-0.51	Scgb1b27 (GeneID 11354)
no change with or without drug	-1.01	1.52	4930470P17Rik (GeneID 67637)
no change with or without drug	-1.8	-0.17	Sil1 (GeneID 81500)
no change with or without drug	0.45	0.17	Zfp799 (GeneID 240064)
low cell count with doxorubicin only (active)	-3.82	0.34	Rph3al (GeneID 380714)
no change with or without drug	-1.57	0.17	Aadat (GeneID 23923)
no change with or without drug	-1.12	-0.84	Avpr1a (GeneID 54140)
no change with or without drug	0.45	0.51	Avpr1a (GeneID 54140)
no change with or without drug	0.56	1.18	Mmp9 (GeneID 17395)
high cell count with doxorubicin only	3.04	1.85	Zfp691 (GeneID 195522)
no change with or without drug	-0.67	-1.18	Matr3 (GeneID 17184)
no change with or without drug	-0.34	0.84	Nsun7 (GeneID 70918)
no change with or without drug	-0.67	0.34	Lamp3 (GeneID 239739)
no change with or without drug	1.12	-0.17	Dynll1 (GeneID 56455)
no change with or without drug	-0.9	-1.18	Trmt10a (GeneID 108943)
no change with or without drug	0	1.18	Dmrta2 (GeneID 242620)
no change with or without drug	0	0.51	Pla2g12a (GeneID 66350)
no change with or without drug	1.35	0.17	Ubash3b (GeneID 72828)
no change with or without drug	-1.91	-1.52	Or6c70 (GeneID 259165)
no change with or without drug	1.12	0.84	Lcn4 (GeneID 16821)
no change with or without drug	0.45	0.84	Aaas (GeneID 223921)
no change with or without drug	0.45	-0.51	Wrap73 (GeneID 59002)
no change with or without drug	1.24	1.18	Mrpl36 (GeneID 94066)
no change with or without drug	0.11	0.34	Defa5 (GeneID 13239)
no change with or without drug	-0.45	0.84	Zkscan6 (GeneID 52712)
no change with or without drug	-1.12	-0.17	Cnksr1 (GeneID 194231)
no change with or without drug	-0.22	0.34	Unc119b (GeneID 106840)
no change with or without drug	0	0.17	Rnf213 (GeneID 672511)
no change with or without drug	0.22	1.35	Or6a2 (GeneID 18317)
